The record followed here is PubChem BioAssay AID1487 (National Center for Advancing Translational Sciences (NCATS), 2009).

A short description of this assay: qHTS Assay for Modulators of Lamin A Splicing. As to conditions: HeLa LMNA splicing GFP/RFP minigene ratio, 48 h. The essentials:
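Read-out is the ratio of GFP to DsRed2 object intensity, acquired by 488 nm laser-scanning cytometry on HeLa lamin A-EGFP minigene reporter cells. Compound incubation 48 hrs at 37 °C in Opti-MEM with 2% FBS; DMSO 0.5% final.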

Setting [1] is: measured here: GFP splicing reporter channel.
[2] abbreviates: measured here: RFP viability control channel.

The other results are listed elsewhere or left out. These are further read-outs of the screen, such as a control signal, another cell line or another target. No call is given for them. Compounds called inactive in the main read-out are mostly missing here. The note in brackets gives the kind of curve behind each potency; many fits are weak.

As usually defined, the AC50 is the concentration at which the activity in the assay is half-maximal. Turning to `COCCCn1c(=O)/c(=C\c2ccccc2OC(F)F)s/c1=C(/C#N)C(N)=O`, the AC50 under setting [1] is 0.00282 µM [rising, full curve, poor fit]. Take `Cc1cc(C)cc(NC(=S)N=Nc2c(O)n(C)c3ccc(S(=O)(=O)N4CCOCC4)cc23)c1`: under setting [2], the AC50 is 0.891 µM [rising, full curve]. For the compound `CCOc1ccc(N2C(=O)CC(NCCNc3ccc(C(=O)c4cccs4)cc3)C2=O)cc1` (stereo not given), the AC50 under setting [2] was 0.00316 µM [falling, full curve, poor fit]. Same read-out and setting: the figure for `C/C(=N\Nc1nc2ccccc2[nH]1)c1cccs1` is 11.2 µM [rising, partial curve, poor fit].

With `CCCn1c2ccccc2c2cnn(CC(=O)NC(C)CC)c(=O)c21` (stereo not given), the AC50 under setting [1] is 0.794 µM [falling, full curve, poor fit]. Turning to `COc1ccc(C2CC(=O)c3c([nH]c(C(=O)OC(C)C)c3C)C2)cc1OC` (stereo not given), under setting [1], the AC50 is 0.0224 µM [falling, full curve, poor fit]. With `COc1cc(-c2cc(C(=O)Nc3ccccc3N3CCOCC3)c3ccccc3n2)cc(OC)c1OC`, the AC50 under setting [2] is 3.98 µM [rising, full curve, poor fit]. On to `Cc1ccc(C(=O)N2CCN=C2SCc2ccc([N+](=O)[O-])cc2)cc1`, for which the AC50 under setting [1] is 35.5 µM [rising, single point] and the AC50 under setting [2] was 35.5 µM [rising, single point].

On to `O=S1(=O)CCN2C(=N1)SC1=C2CCN(Cc2ccccc2)C1`, for which, under setting [2], the AC50 is 0.0794 µM [rising, full curve, poor fit]. For `Cc1ccc(C(=O)O)cc1NC(=S)NC(=O)C(c1ccccc1)c1ccccc1`, the AC50 was 2.82 µM [falling, partial curve] under setting [1] and 3.98 µM [falling, partial curve] under setting [2]. In the case of `Cn1c(Cc2cccs2)nnc1SCC(=O)N1CCCc2ccccc21`, the AC50 runs as follows: under setting [1], 22.4 µM [falling, single point]; under setting [2], 25.1 µM [falling, single point]. As to `Fc1ccc(CNC(=S)NC2CCCC2)cc1`, the AC50 runs as follows: under setting [1], 12.6 µM [rising, single point]; under setting [2], 25.1 µM [rising, single point]. For the compound `Clc1ccc(OCc2nc(-c3ccccn3)n[nH]2)cc1`, under setting [2], the AC50 was 22.4 µM [rising, single point].

Take `OC(COc1ccc2ccccc2c1Br)Cn1cnc(-c2ccccc2)c1` (stereo not given): the AC50 is 25.1 µM [rising, single point] under setting [1] and 15.8 µM [rising, single point] under setting [2]. As to `C=C(C)C1CC=C(C)/C(=N/NC(=S)Nc2ccccc2)C1` (stereo not given), the AC50 under setting [2] was 3.16 µM [rising, full curve]. The same measure, in the same setting: to `CCN(CC(=O)Nc1ccccc1OC)C(=O)COc1ccc2ccccc2c1` belongs 35.5 µM [rising, single point].

Regarding `O=C(Nc1ccccc1)c1ccccc1NS(=O)(=O)c1ccc(Cl)s1`, the AC50 under setting [2] was 2.24 µM [rising, partial curve]. In the case of `Cc1cc(C(=O)Nc2cc(C(C)(C)C)on2)c(C)o1`, the AC50 under setting [1] was 0.00891 µM [falling, full curve, poor fit] and the AC50 under setting [2] was 0.01 µM [falling, full curve, poor fit]. `CC(=O)N1CCc2cc(S(=O)(=O)N3c4ccccc4CC3C)ccc21` (stereo not given): under setting [2], the AC50 is 11.2 µM [rising, single point]. `CC(C)C(=O)NC(c1cccs1)c1cc([N+](=O)[O-])c2cccnc2c1O` (stereo not given): the AC50 is 35.5 µM [falling, single point] under setting [1] and 28.2 µM [falling, single point] under setting [2]. With `COc1ccc(N2CCN(C(=O)c3c4c(nc5ccccc35)C(=O)N(C3CCCCC3)C4)CC2)cc1`, the AC50 under setting [1] is 0.0891 µM [falling, partial curve]. As for `CCC1CSC(Nc2ccc(C(=O)/C=C/c3cccc(C)c3)cc2)=N1` (stereo not given), the concentration at half-maximal activity (AC50) under setting [1] is 35.5 µM [falling, single point] and the AC50 under setting [2] is 35.5 µM [falling, single point]. As for `COc1cccc(-c2cc(C(=O)N3CCN(c4ncccn4)CC3)c3ccccc3n2)c1`, the AC50 under setting [2] was 31.6 µM [rising, single point]. Still for that read-out and setting: to `Cc1cc(C)n2nc(SCc3nnc(-c4ccc(F)cc4)o3)nc2n1` belongs 0.0708 µM [rising, full curve, poor fit]; to `CCOc1[nH]n(-c2ccc(Cl)cc2)c(=O)c1C=Nc1ccc(O)cc1`, 11.2 µM [falling, partial curve]. As to `CC(=O)N1CCc2cc(S(=O)(=O)NCCC(=O)NCCc3ccc(C)cc3)ccc21`, under setting [2], the AC50 was 22.4 µM [rising, single point]. With `CC(C)c1ccc(/C=C/C(=O)NC2CCCCC2)cc1`, the concentration at half-maximal activity (AC50) under setting [1] was 0.708 µM [rising, full curve, poor fit].

Turning to `CSc1ccc(C2c3[nH]c4ccccc4c3CCN2C(=O)CCC2CCCC2)cc1` (stereo not given), the AC50 under setting [1] is 6.31 µM [falling, full curve].

Regarding `COC(=O)c1ccc(CNCC(=O)Nc2ccc(C(=O)OC)cc2)cc1`, under setting [2], the AC50 is 10 µM [rising, partial curve, poor fit]. Regarding `COc1cc(-c2cc(=O)c3ccccc3o2)ccc1O`, under setting [1], the AC50 was 35.5 µM [falling, single point]. `COc1ccc(NC(=O)CC2C(=O)N(C)C(=S)N2CCc2ccccc2F)cc1` (stereo not given): the AC50 runs as follows: under setting [1], 35.5 µM [rising, single point]; under setting [2], 20 µM [rising, single point]. Turning to `O=C(O)c1ccccc1C(=O)Nc1ccc(S(=O)(=O)NC2CCCCC2)cc1`, under setting [2], the AC50 was 0.282 µM [rising, full curve, poor fit]. `O=C(CCl)Nc1ccc(N=Nc2ccccc2)cc1`: the AC50 by setting is: under setting [1], 35.5 µM [falling, single point]; under setting [2], 15.8 µM [rising, single point]. For the compound `COCCCNC(=S)N(Cc1ccccc1)Cc1ccccc1`, under setting [1], the AC50 is 10 µM [rising, partial curve, poor fit]. For the compound `Cc1ccc(C2c3c(-c4ccccc4O)n[nH]c3C(=O)N2Cc2ccncc2)cc1` (stereo not given), under setting [2], the AC50 was 10 µM [rising, partial curve, poor fit]. Turning to `CC(C)N=c1scc(-c2ccco2)n1/N=C/c1ccc(O)c(O)c1`, the AC50 under setting [1] is 3.55 µM [rising, single point] and the AC50 under setting [2] was 25.1 µM [falling, single point]. On to `O=C(NNc1ccc(C2CCCCC2)cc1)C(O)(c1ccccc1)c1cccs1` (stereo not given), for which the AC50 runs as follows: under setting [1], 17.8 µM [falling, single point]; under setting [2], 12.6 µM [falling, single point]. Regarding `Cc1cccc(Cc2c(C)nc3nc(SCc4cccc(F)c4)nn3c2C)c1`, under setting [1], the AC50 is 0.0112 µM [falling, full curve, poor fit]. Turning to `COc1ccc(N2CCN(CC(O)c3c[nH]c4ccc(OC)cc34)CC2C)cc1` (stereo not given), the AC50 under setting [1] is 0.0251 µM [falling, single point].

Regarding `CCOc1nc(SCCOc2ccc(C)cc2)nc(N(C)C)n1`, the AC50 was 5.01 µM [rising, partial curve] under setting [1] and 11.2 µM [rising, partial curve] under setting [2]. As to `COc1ccc(/C=N/NC(=O)c2ccccc2)cc1OS(=O)(=O)c1ccccc1`, the AC50 runs as follows: under setting [1], 5.62 µM [rising, full curve]; under setting [2], 7.94 µM [rising, partial curve, poor fit]. Take `COc1ccccc1CNC(=O)C(=O)NCC(c1cccnc1)N1CCN(c2ccc(F)cc2)CC1` (stereo not given): the AC50 under setting [1] was 35.5 µM [falling, partial curve] and the AC50 under setting [2] is 28.2 µM [falling, partial curve]. `O=C(O)c1ccc(N=Nc2c(O)[nH]c3ccccc23)cc1`: the AC50 by setting is: under setting [1], 7.94 µM [falling, partial curve, poor fit]; under setting [2], 8.91 µM [falling, partial curve, poor fit]. For the compound `CNC(=O)C(=O)NCCN1CCN(C(=O)c2ccc([N+](=O)[O-])cc2)CC1`, the AC50 under setting [2] was 8.91 µM [falling, partial curve, poor fit]. Turning to `CC(NC(=O)COc1ncnc2cc([N+](=O)[O-])ccc12)c1ccccc1` (stereo not given), the AC50 under setting [1] was 5.62 µM [rising, single point]. Turning to `O=C(CN(c1cccc(C(F)(F)F)c1)S(=O)(=O)c1ccccc1)Nc1cccc(Cl)c1`, the AC50 runs as follows: under setting [1], 35.5 µM [falling, single point]; under setting [2], 20 µM [falling, single point]. As to `NC(=O)C1CCN(Cc2nc(-c3cccs3)no2)CC1`, the AC50 under setting [1] is 0.562 µM [rising, full curve].

`COCCN1CSC(=S)N(Cc2ccco2)C1`: the AC50 under setting [1] is 3.98 µM [falling, full curve] and the AC50 under setting [2] was 28.2 µM [falling, single point]. Regarding `NS(=O)(=O)c1ccc(NC(=O)CN2CCN(c3ccc(F)cc3)CC2)cc1`, the AC50 under setting [2] was 0.141 µM [falling, full curve, poor fit]. `Cc1cccn2c(=O)cc(COc3ccc(NC(=O)C(C)Oc4ccccc4)cc3)nc12` (stereo not given): the AC50 is, setting by setting: under setting [1], 22.4 µM [falling, single point]; under setting [2], 35.5 µM [falling, single point]. In the case of `N#CC(C(=O)c1ccc(S(=O)(=O)N2CCCCCC2)cc1)c1nc2ccccc2[nH]1` (stereo not given), the AC50 under setting [2] is 5.01 µM [rising, full curve]. In the case of `CC(=O)c1sc(NC(=O)COc2ccc(C(C)C)c(C)c2)nc1C`, the AC50 under setting [1] was 0.891 µM [falling, full curve, poor fit]. As for `COc1cc(C=O)ccc1OCCCCOc1ccccc1[N+](=O)[O-]`, the AC50 under setting [1] is 0.501 µM [rising, full curve, poor fit]. Consider `S=C(c1ccc(-c2cc(Cl)ccc2Cl)o1)N1CCCCC1`, for which the AC50 is 1.58 µM [falling, partial curve] under setting [1] and 2 µM [falling, partial curve] under setting [2]. For `COc1ccc(-n2c(SCC(=O)NC3CCCCC3)nc3c([nH]c4ccccc43)c2=O)cc1`, under setting [2], the AC50 is 12.6 µM [falling, single point].
